Measurements as given in patent US8133482B2 (The Trustees of the University of Pennsylvania, priority 2003, dated 2012).

Assay: Fmoc solid-phase peptide synthesis; sieber amide resin; HBTU/HOBt
Settings: whole synthesis, HPLC

GDEVDGSGK(Mtt)
purity (crude or final not stated): more than 90%
